Measurements reported in PubChem BioAssay AID1259405 (NCATS, 2018).

- Purpose: 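Knock-downs that lift recombinant protein yield in hamster ovary cells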 (primary screen)
- System: Chinese hamster CHO-K1 ovary cells with stable secreted eGFP expression
- Reagents: single siRNA against mouse genes, 0.8 pmol siRNA per well (2 µl of 400 nM stock)
- Timing: 3 days
- Measured: 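Per-well intracellular GFP measured by laser scanning cytometry, plus viability from ATP luminescence, each relative to plate median of non-targeting control wells, in %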
- Reading the numbers: GFP, % of control: higher = more GFP per well, higher productivity; viability (ATP), % of control: higher = more viable cells (more ATP)
- Hit rule: 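Called active when intracellular GFP, relative to negative control, is at or above 120%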
Here is an unselected part of about 50,000 reagents. About 4,000 of them (8%) count as active. 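Mouse siRNA library applied to hamster cells; one well for each siRNA.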 Reagents against one gene are numbered here.

target gene | reagent no. | GFP, % of control | viability (ATP), % of control | Call
Fgf7 (fibroblast growth factor 7) | 1 | 61.8 | 78.4 | inactive
Fgf7 (fibroblast growth factor 7) | 2 | 59.7 | 54.4 | inactive
Fgf7 (fibroblast growth factor 7) | 3 | 36.4 | 53.4 | inactive
Cyp1a2 (cytochrome P450, family 1, subfamily a, polypeptide 2) | 1 | 65.4 | 67.7 | inactive
Cyp1a2 (cytochrome P450, family 1, subfamily a, polypeptide 2) | 2 | 54.7 | 67.3 | inactive
Cyp1a2 (cytochrome P450, family 1, subfamily a, polypeptide 2) | 3 | 56.5 | 42.9 | inactive
Slc6a9 | 1 | 92.7 | 72.5 | inactive
Slc6a9 | 2 | 53.1 | 65 | inactive
Slc6a9 | 3 | 72.8 | 76.6 | inactive
Tnfsf10 (tumor necrosis factor (ligand) superfamily, member 10) | 1 | 75.7 | 94.9 | inactive
Tnfsf10 (tumor necrosis factor (ligand) superfamily, member 10) | 2 | 91.7 | 80.6 | inactive
Kcnk7 (potassium channel, subfamily K, member 7) | 1 | 34.6 | 39.5 | inactive
Kcnk7 (potassium channel, subfamily K, member 7) | 2 | 74.7 | 58.2 | inactive
Kcnk7 (potassium channel, subfamily K, member 7) | 3 | 52.4 | 86.2 | inactive
Pnma2 (paraneoplastic antigen MA2) | 1 | 112 | 71.9 | inactive
Pnma2 (paraneoplastic antigen MA2) | 2 | 69.3 | 76.3 | inactive
Pnma2 (paraneoplastic antigen MA2) | 3 | 79.1 | 80.6 | inactive
4930563M21Rik (RIKEN cDNA 4930563M21 gene) | 1 | 137 | 104 | active
4930563M21Rik (RIKEN cDNA 4930563M21 gene) | 2 | 61.1 | 55.8 | inactive
4930563M21Rik (RIKEN cDNA 4930563M21 gene) | 3 | 75.9 | 69 | inactive
Klhl12 (kelch-like 12) | 1 | 40.3 | 57.4 | inactive
Klhl12 (kelch-like 12) | 2 | 89.4 | 48 | inactive
Etfdh (electron transferring flavoprotein, dehydrogenase) | 1 | 64.5 | 85.7 | inactive
Etfdh (electron transferring flavoprotein, dehydrogenase) | 2 | 68.6 | 73.9 | inactive
Etfdh (electron transferring flavoprotein, dehydrogenase) | 3 | 85.7 | 103 | inactive
Cap2 (cyclase associated actin cytoskeleton regulatory protein 2) | 1 | 87.4 | 72 | inactive
Cap2 (cyclase associated actin cytoskeleton regulatory protein 2) | 2 | 95.8 | 73.4 | inactive
Cap2 (cyclase associated actin cytoskeleton regulatory protein 2) | 3 | 108 | 113 | inactive
P4htm (prolyl 4-hydroxylase, transmembrane (endoplasmic reticulum)) | 1 | 39.3 | 37.5 | inactive
P4htm (prolyl 4-hydroxylase, transmembrane (endoplasmic reticulum)) | 2 | 76 | 74.4 | inactive
P4htm (prolyl 4-hydroxylase, transmembrane (endoplasmic reticulum)) | 3 | 63.5 | 56.9 | inactive
Flt4 (FMS-like tyrosine kinase 4) | 1 | 73.5 | 89.1 | inactive
Flt4 (FMS-like tyrosine kinase 4) | 2 | 68 | 82.3 | inactive
Flt4 (FMS-like tyrosine kinase 4) | 3 | 80 | 55.9 | inactive
Sertad2 (SERTA domain containing 2) | 1 | 48.3 | 36.8 | inactive
Sertad2 (SERTA domain containing 2) | 2 | 87.5 | 68.5 | inactive
Sertad2 (SERTA domain containing 2) | 3 | 74.9 | 77.9 | inactive
Pramel39-ps (PRAME like 39, pseudogene) | 1 | 107 | 78.1 | inactive
Pramel39-ps (PRAME like 39, pseudogene) | 2 | 79.7 | 66.9 | inactive
Pramel39-ps (PRAME like 39, pseudogene) | 3 | 86 | 78.1 | inactive
Elf5 (E74-like factor 5) | 1 | 43.3 | 58 | inactive
Elf5 (E74-like factor 5) | 2 | 58.1 | 72 | inactive
Elf5 (E74-like factor 5) | 3 | 71.2 | 57.8 | inactive
Noxa1 (NADPH oxidase activator 1) | 1 | 64.7 | 64.1 | inactive
Noxa1 (NADPH oxidase activator 1) | 2 | 110 | 89.7 | inactive
Noxa1 (NADPH oxidase activator 1) | 3 | 75.4 | 52.4 | inactive
Pop7 | 1 | 87.2 | 62.3 | inactive
Pop7 | 2 | 99.1 | 89.7 | inactive
Pop7 | 3 | 76 | 83.3 | inactive
Bid (BH3 interacting domain death agonist) | 1 | 68.2 | 60.5 | inactive
Bid (BH3 interacting domain death agonist) | 2 | 90.8 | 101 | inactive
Bid (BH3 interacting domain death agonist) | 3 | 86.9 | 91 | inactive
Meig1 (meiosis expressed gene 1) | 1 | 73 | 41.4 | inactive
Meig1 (meiosis expressed gene 1) | 2 | 95.7 | 89.1 | inactive
Meig1 (meiosis expressed gene 1) | 3 | 120 | 70.8 | inactive
Acot5 (acyl-CoA thioesterase 5) | 1 | 57.8 | 52.1 | inactive
Acot5 (acyl-CoA thioesterase 5) | 2 | 95.2 | 96.8 | inactive
Acot5 (acyl-CoA thioesterase 5) | 3 | 113 | 135 | inactive
Prl7d1 (prolactin family 7, subfamily d, member 1) | 1 | 118 | 87.4 | inactive
Prl7d1 (prolactin family 7, subfamily d, member 1) | 2 | 41.5 | 64.8 | inactive
Prl7d1 (prolactin family 7, subfamily d, member 1) | 3 | 62.6 | 70.3 | inactive
Fam43a (family with sequence similarity 43, member A) | 1 | 75.5 | 50.7 | inactive
Fam43a (family with sequence similarity 43, member A) | 2 | 62.2 | 82.4 | inactive
Fam43a (family with sequence similarity 43, member A) | 3 | 102 | 96.3 | inactive
Herpud1 | 1 | 79.3 | 73.1 | inactive
Herpud1 | 2 | 111 | 102 | inactive
Herpud1 | 3 | 111 | 62.1 | inactive
Simc1 (SUMO-interacting motifs containing 1) | 1 | 73 | 74.9 | inactive
Simc1 (SUMO-interacting motifs containing 1) | 2 | 35.9 | 56.8 | inactive
Simc1 (SUMO-interacting motifs containing 1) | 3 | 95.9 | 70.7 | inactive
Ctsk (cathepsin K) | 1 | 40.6 | 49 | inactive
Ctsk (cathepsin K) | 2 | 55.1 | 20.2 | inactive
Ctsk (cathepsin K) | 3 | 36.3 | 32.2 | inactive
Slc25a1 | 1 | 120 | 106 | inactive
Slc25a1 | 2 | 118 | 106 | inactive
Slc25a1 | 3 | 163 | 141 | active
Slc2a6 | 1 | 61.4 | 69 | inactive
Slc2a6 | 2 | 61 | 81.6 | inactive
Slc2a6 | 3 | 46.8 | 40 | inactive
Taf13 (TATA-box binding protein associated factor 13) | 1 | 83.2 | 61.9 | inactive
Taf13 (TATA-box binding protein associated factor 13) | 2 | 98.7 | 82.9 | inactive
Taf13 (TATA-box binding protein associated factor 13) | 3 | 83.1 | 78.2 | inactive
Tcp11l1 (t-complex 11 like 1) | 1 | 50.5 | 89 | inactive
Tcp11l1 (t-complex 11 like 1) | 2 | 66.7 | 87.6 | inactive
Tcp11l1 (t-complex 11 like 1) | 3 | 150 | 111 | active
Coprs (coordinator of PRMT5, differentiation stimulator) | 1 | 139 | 88.1 | active
Coprs (coordinator of PRMT5, differentiation stimulator) | 2 | 74.3 | 46.3 | inactive
Coprs (coordinator of PRMT5, differentiation stimulator) | 3 | 156 | 73.5 | active
Il9 (interleukin 9) | 1 | 84.3 | 102 | inactive
Il9 (interleukin 9) | 2 | 74.3 | 53.5 | inactive
Il9 (interleukin 9) | 3 | 98.7 | 55.1 | inactive
Zap70 (zeta-chain (TCR) associated protein kinase) | 1 | 49.5 | 62.2 | inactive
Zap70 (zeta-chain (TCR) associated protein kinase) | 2 | 52.8 | 67.6 | inactive
Zap70 (zeta-chain (TCR) associated protein kinase) | 3 | 88.7 | 75 | inactive
Aktip (AKT interacting protein) | 1 | 82.4 | 86.3 | inactive
Aktip (AKT interacting protein) | 2 | 85.2 | 94.9 | inactive
Aktip (AKT interacting protein) | 3 | 51.1 | 58.1 | inactive
Zik1 (zinc finger protein interacting with K protein 1) | 1 | 47.4 | 73.9 | inactive
Zik1 (zinc finger protein interacting with K protein 1) | 2 | 61.9 | 85.7 | inactive
Zik1 (zinc finger protein interacting with K protein 1) | 3 | 50.7 | 77.8 | inactive
Tgs1 (trimethylguanosine synthase 1) | 1 | 58.5 | 70.4 | inactive
Tgs1 (trimethylguanosine synthase 1) | 2 | 154 | 161 | active
Tgs1 (trimethylguanosine synthase 1) | 3 | 89.2 | 75.9 | inactive
Fbxl12os (F-box and leucine-rich repeat protein 12, opposite strand) | 1 | 56.8 | 43.4 | inactive
Fbxl12os (F-box and leucine-rich repeat protein 12, opposite strand) | 2 | 107 | 82.3 | inactive
Fbxl12os (F-box and leucine-rich repeat protein 12, opposite strand) | 3 | 105 | 94.3 | inactive
Tcam1 (testicular cell adhesion molecule 1) | 1 | 140 | 73.4 | active
Tcam1 (testicular cell adhesion molecule 1) | 2 | 49.1 | 75.5 | inactive
Tcam1 (testicular cell adhesion molecule 1) | 3 | 58.5 | 69.7 | inactive
